These are yes or no findings as the source states them, for the method shown. Where a sequence is shown, tags or fusion partners need not be part of it.
Biological target: rat ASIC1a-GFP (rat) (UniProt P55926)
Assay: native gel or EMSA; high-resolution clear native PAGE (4 to 16%) of GFP-tagged proteins from 1% digitonin lysates of transfected HEK cells, GFP fluorescence scan; without coexpressed PCYOX1L

B1: rat ASIC1a-GFP (natural protein, UniProt P55926-1 1-526, looked up)
chain: MELKTEEEEVGGVQPVSIQAFASSSTLHGLAHIFSYERLSLKRALWALCFLGSLAVLLCVCTERVQYYFCYHHVTKLDEVAASQLTFPAVTLCNLNEFRFSQVSKNDLYHAGELLALLNNRYEIPDTQMADEKQLEILQDKANFRSFKPKPFNMREFYDRAGHDIRDMLLSCHFRGEACSAEDFKVVFTRYGKCYTFNSGQDGRPRLKTMKGGTGNGLEIMLDIQQDEYLPVWGETDETSFEAGIKVQIHSQDEPPFIDQLGFGVAPGFQTFVSCQEQRLIYLPSPWGTCNAVTMDSDFFDSYSITACRIDCETRYLVENCNCRMVHMPGDAPYCTPEQYKECADPALDFLVEKDQEYCVCEMPCNLTRYGKELSMVKIPSKASAKYLAKKFNKSEQYIGENILVLDIFFEVLNYETIEQKKAYEIAGLLGDIGGQMGLFIGASILTVLELFDYAYEVIKHRLCRRGKCQKEAKRSSADKGVALSLDDVKRHNPCESLRGHPAGMTYAANILPHHPARGTFEDFTC
notes: ASIC1a, rat, in pEGFP-N1; the methods say that rat ASIC1a was used for coexpression with PCYOX1L in HEK293 cells; The vector pEGFP-N1 would put GFP at the C-terminus; source: HEK cells, transfected, in digitonin lysate
B1 was tested, and the binding was “no binding (condition: without coexpressed PCYOX1L)”.

From publication PMC13155533, “The secreted protein PCYOX1L controls the surface expression of acid-sensing ion channel 1a” (Science Advances, 2025)
